# According to US9018255B2, “Esters of (acyloxymethyl)acrylamide, a pharmaceutical composition containing them, and their use as inhibitors of the thioredoxin—thioredoxin reductase system” (Instytut Chemii Organicznej Polskiej Akademii Nauk, priority 2010, dated 2015):
# The chains behind the UniProt entries cited, without tags or fusion partners. Where a name states a change or a piece, a line headed by the entry shows the natural chain unless it says otherwise. Residues count along the entry.
# UniProt P00390, 44-522: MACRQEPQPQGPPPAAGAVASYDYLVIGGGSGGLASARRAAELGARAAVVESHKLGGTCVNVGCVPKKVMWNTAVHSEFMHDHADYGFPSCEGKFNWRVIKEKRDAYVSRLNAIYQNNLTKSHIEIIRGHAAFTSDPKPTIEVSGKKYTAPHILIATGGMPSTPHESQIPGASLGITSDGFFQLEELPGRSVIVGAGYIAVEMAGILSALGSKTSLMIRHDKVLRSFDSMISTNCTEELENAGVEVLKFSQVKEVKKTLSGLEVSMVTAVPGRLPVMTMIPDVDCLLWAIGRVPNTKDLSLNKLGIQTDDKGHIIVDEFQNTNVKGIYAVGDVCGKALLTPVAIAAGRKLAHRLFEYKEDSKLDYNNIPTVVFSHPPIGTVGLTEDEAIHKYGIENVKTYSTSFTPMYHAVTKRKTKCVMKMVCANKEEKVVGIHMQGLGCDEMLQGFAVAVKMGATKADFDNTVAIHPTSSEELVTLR
# UniProt P10599: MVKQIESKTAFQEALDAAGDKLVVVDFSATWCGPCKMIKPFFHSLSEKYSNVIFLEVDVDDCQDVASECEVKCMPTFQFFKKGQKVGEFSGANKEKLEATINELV
# At least one structure is not confirmed: it was looked up by name or label, or the drawing left a doubt.
# Columns and labels:
# glutathione reductase = glutathione reductase (Homo sapiens (Human), UniProt P00390); experiment: Glutathione reductase activity, DTNB chromogenic assay (Glutathione Reductase Assay Kit); format: biochemical; conditions: even at a concentration of 100 μM
# Description: The spatial structures of the active centres of glutathione reductase and the enzymes of the Trx-TrxR system show a high similarity. […] The reactions for determining the activity of recombinant human glutathione reductase made use of a chromogenic reaction with 5,5′-dithiobis-2-nitrobenzoic acid, like in the case of thioredoxin reductase. Activity was determined after 5 and 10 min incubation at room temperature.
# [1] = molecular target: human recombinant thioredoxin (Homo sapiens (Human), UniProt P10599); experiment: Thioredoxin activity, insulin reduction / DTNB assay with recombinant enzymes; format: biochemical
# Description: The method of determining thioredoxin activity is based on the reduction of insulin by thioredoxin. Thioredoxin is reconstituted is by thioredoxin reductase, with NADPH. The resulting free thiol —SH groups react with 5,5′-dithiobis-2-nitrobenzoic acid (DTNB). The termination of the reaction results in the formation of a […] colour. The intensity of colouration is determined spectrophotometrically at 412 nm and this corresponds to the number of reduced sulfahydryl groups. The reaction was performed at 37° C. over 30 min. in a buffer containing 50 mM Tris-HCl and 20 mM EDTA at a pH of 7.6. The substrate concentrations used were: 0.25 μM human recombinant thioredoxin and 0.325 μM rat recombinant thioredoxin reductase (IMCO Corporation Ltd AB, Sweden) and 316 μM of insulin, 0.8 μM NADPH, 8 mM DTNB (Sigma Aldrich).
structure (smiles),measurement,setting,value
"C=C(COC(=O)c1c(C(F)(F)F)cccc1C(F)(F)F)C(=O)NCc1ccccc1 [Compound 8a, 2-(benzylcarbamoyl)allyl 2,6-bis(trifluoromethyl)benzoate]",inhibition of glutathione reductase activity,glutathione reductase,None
same,selectivity as thioredoxin inhibitor in comparison to PX-12,"[1]; from Tables 1, 2 and 3",considerably more selective
same,thioredoxin activity inhibition in comparison to PX-12,[1]; in words,concentrations smaller than compound PX-12
